From patent publication US20240043519A1
Results are given in words; binding and its absence hold for the method and conditions named. For part of these data: Binding seen in cells or lysates may run through a third protein. Some binding calls cover weakened binding; strength is not graded here.

Sequences of proteins named here, by UniProt entry; tags and fusion partners are left off. Residues count along the entry.
UniProt P46531, residues 19-2555: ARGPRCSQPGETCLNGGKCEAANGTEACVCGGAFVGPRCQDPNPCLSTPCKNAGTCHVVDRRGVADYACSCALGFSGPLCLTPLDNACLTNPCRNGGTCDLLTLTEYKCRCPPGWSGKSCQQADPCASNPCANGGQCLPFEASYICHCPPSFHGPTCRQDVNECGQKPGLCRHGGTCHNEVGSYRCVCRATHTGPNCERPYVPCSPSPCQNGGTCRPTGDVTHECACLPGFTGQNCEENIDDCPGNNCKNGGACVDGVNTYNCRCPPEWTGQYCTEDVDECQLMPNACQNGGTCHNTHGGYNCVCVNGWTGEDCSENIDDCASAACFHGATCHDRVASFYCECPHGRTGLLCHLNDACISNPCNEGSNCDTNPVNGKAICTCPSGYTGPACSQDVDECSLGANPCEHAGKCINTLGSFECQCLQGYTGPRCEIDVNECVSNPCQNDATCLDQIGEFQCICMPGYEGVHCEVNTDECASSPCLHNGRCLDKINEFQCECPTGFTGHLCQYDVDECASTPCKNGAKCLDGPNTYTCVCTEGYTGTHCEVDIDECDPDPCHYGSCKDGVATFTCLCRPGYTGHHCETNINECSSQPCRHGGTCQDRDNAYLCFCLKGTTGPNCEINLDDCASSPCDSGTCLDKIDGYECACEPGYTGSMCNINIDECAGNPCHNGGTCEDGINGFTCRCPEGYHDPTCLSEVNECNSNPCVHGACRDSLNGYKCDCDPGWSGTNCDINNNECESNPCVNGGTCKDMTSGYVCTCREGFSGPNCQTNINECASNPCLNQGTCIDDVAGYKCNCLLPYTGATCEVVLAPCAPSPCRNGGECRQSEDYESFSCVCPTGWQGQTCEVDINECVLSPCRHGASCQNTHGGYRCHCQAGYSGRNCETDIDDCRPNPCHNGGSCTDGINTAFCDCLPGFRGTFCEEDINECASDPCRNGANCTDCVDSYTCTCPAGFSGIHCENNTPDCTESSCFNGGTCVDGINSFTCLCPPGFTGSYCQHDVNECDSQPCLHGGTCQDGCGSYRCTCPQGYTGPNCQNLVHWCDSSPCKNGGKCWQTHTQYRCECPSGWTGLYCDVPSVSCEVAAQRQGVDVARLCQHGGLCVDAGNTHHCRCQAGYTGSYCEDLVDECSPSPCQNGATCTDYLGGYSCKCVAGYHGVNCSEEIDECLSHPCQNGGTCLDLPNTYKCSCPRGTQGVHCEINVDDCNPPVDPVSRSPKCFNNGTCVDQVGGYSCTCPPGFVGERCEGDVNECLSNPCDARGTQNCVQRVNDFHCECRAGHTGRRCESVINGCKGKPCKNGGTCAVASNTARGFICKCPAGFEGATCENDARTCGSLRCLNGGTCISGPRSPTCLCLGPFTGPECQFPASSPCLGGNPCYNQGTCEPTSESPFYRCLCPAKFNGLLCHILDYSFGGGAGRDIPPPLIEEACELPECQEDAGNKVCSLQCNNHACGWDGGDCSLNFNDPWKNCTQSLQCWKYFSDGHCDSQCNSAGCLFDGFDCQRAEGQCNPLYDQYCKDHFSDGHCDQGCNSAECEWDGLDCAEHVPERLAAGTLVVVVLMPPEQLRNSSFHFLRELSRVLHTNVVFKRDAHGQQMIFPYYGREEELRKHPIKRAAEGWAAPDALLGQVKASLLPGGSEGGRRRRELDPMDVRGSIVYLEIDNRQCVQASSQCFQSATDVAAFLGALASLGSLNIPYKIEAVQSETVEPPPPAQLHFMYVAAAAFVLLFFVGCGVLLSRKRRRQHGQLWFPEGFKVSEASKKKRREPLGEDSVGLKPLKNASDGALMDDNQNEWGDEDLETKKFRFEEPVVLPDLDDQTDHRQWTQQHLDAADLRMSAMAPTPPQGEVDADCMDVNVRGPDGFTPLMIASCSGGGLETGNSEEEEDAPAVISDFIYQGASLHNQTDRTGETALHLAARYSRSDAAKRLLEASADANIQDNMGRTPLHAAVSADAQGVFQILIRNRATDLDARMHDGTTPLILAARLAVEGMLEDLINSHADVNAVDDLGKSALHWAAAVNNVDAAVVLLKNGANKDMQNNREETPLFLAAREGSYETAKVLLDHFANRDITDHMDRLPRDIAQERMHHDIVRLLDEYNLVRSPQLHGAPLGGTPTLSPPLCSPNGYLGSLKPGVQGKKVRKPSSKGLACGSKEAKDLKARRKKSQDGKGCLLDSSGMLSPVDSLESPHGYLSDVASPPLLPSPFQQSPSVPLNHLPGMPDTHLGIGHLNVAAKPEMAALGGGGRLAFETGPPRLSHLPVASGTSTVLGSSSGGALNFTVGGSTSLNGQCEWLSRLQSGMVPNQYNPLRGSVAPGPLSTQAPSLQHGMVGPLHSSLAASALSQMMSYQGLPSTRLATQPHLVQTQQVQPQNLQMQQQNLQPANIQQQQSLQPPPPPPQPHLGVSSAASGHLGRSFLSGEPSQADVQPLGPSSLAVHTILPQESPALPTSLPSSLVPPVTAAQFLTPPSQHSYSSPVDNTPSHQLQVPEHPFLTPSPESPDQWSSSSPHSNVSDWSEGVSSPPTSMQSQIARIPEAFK
UniProt Q9UM47, residues 40-2321: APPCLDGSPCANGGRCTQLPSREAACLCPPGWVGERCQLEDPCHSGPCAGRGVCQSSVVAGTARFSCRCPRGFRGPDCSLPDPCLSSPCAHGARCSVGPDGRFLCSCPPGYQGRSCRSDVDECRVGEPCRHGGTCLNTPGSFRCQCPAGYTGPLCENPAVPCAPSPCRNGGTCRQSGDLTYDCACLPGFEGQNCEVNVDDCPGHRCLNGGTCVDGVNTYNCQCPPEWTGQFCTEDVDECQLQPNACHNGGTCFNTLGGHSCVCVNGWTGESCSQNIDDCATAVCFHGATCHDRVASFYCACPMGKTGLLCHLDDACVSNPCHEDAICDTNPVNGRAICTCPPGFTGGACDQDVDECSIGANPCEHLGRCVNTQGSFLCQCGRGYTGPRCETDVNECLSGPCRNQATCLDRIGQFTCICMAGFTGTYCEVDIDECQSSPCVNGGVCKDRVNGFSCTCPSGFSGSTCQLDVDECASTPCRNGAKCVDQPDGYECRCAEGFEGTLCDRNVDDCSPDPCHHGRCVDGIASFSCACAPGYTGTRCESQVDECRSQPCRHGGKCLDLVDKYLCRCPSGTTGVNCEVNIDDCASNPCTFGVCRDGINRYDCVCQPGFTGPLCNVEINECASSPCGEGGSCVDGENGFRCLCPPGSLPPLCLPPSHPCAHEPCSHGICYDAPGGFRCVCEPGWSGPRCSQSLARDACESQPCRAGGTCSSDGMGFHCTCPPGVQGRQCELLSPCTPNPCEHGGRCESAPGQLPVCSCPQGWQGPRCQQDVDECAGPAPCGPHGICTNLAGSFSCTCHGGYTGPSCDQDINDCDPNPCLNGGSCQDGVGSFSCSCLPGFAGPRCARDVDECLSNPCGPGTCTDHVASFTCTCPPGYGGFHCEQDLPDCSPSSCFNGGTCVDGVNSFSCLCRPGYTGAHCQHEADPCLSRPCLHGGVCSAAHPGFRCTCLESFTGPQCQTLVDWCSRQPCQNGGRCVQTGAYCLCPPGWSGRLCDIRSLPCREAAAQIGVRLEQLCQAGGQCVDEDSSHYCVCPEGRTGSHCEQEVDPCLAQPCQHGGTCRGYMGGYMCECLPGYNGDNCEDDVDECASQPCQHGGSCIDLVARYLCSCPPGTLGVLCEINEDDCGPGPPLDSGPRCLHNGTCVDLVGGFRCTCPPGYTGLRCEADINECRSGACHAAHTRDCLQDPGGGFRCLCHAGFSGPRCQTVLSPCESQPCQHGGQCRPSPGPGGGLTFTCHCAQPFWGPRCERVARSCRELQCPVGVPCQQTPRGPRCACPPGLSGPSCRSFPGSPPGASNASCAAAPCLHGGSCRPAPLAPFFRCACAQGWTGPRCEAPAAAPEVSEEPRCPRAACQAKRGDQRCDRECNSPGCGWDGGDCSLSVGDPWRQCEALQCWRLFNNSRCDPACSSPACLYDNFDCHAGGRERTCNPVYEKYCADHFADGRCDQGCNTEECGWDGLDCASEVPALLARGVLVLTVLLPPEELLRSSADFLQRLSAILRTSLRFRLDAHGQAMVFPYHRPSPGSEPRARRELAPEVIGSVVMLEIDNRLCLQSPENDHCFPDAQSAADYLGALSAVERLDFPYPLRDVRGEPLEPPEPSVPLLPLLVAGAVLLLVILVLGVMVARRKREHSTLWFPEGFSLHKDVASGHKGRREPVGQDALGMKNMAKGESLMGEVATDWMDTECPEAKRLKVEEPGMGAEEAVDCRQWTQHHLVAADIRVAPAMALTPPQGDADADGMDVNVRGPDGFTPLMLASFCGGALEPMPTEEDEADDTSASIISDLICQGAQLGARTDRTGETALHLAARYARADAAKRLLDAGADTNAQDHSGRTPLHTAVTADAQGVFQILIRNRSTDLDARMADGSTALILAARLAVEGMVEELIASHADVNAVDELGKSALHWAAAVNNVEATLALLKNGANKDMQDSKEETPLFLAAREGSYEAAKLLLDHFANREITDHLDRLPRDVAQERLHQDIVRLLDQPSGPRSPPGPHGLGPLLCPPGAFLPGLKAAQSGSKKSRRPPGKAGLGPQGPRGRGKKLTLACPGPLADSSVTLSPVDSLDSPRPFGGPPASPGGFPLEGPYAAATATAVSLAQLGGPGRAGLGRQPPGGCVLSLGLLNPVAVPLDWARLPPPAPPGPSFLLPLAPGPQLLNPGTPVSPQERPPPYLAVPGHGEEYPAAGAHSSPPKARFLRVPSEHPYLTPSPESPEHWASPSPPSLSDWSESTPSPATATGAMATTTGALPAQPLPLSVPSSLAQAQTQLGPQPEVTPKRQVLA

B1: recombinant human EGFL7 protein (ligand)
chain: TEHAYRPGRRVCAVRAHGDPVSESFVQRVYQPFLTTCDGHRACSTYRTIYRTAYRRSPGLAPARPRYACCPGWKRTSGLPGACGAAICQPPCRNGGSCVQPGRCRCPAGWRGDTCQSDVDECSARRGGCPQRCVNTAGSYWCQCWEGHSLSADGTLCVPKGGPPRVAPNPTGVDSAMKEEVQRLQSRVDLLEEKLQLVLAPLHSLASQALEHGLPDPGSLLVHSFQQLGRIDSLSEQISFLEEQLGSCSCKKDS
B2: EGFL7 protein (endogenous, in lysates of human AML cells: Kasumi-1, THP-1, primary AML patient blasts) (ligand)
chain: TEHAYRPGRRVCAVRAHGDPVSESFVQRVYQPFLTTCDGHRACSTYRTIYRTAYRRSPGLAPARPRYACCPGWKRTSGLPGACGAAICQPPCRNGGSCVQPGRCRCPAGWRGDTCQSDVDECSARRGGCPQRCVNTAGSYWCQCWEGHSLSADGTLCVPKGGPPRVAPNPTGVDSAMKEEVQRLQSRVDLLEEKLQLVLAPLHSLASQALEHGLPDPGSLLVHSFQQLGRIDSLSEQISFLEEQLGSCSCKKDS

Tests used:
NOTCH1 (human) [1] = molecular target: NOTCH1 (human) (UniProt P46531); test: antibody interaction array with AML blast lysate plus rEGFL7
NOTCH1 (human) [2] = molecular target: NOTCH1 (human) (UniProt P46531); test: antibody interaction array (~400 antibodies) with AML blast lysate plus rEGFL7, detected with anti-EGFL7-HRP against anti-GST-HRP control
NOTCH3 (human) = NOTCH3 (human) (UniProt Q9UM47); test: co-immunoprecipitation, Kasumi-1 cell lysate, immunoblot

Binder | binding (NOTCH1 (human) [1]) | binding (NOTCH1 (human) [2]) | binding (NOTCH3 (human))
B1 | binds | binds | –
B2 | – | – | binds
